Data: US20090285803A1
These are yes or no findings as the source states them, for the method shown. Some results given as binding are weak or reduced against the parent protein; the word gives no strength.

Assays:
Nogo Receptor (human) = target: T1, Nogo Receptor (human) (UniProt Q9BZR6); assay: expression cloning; AP-fusion bait (20-50 nM) on transfected COS7 cells, chromogenic AP staining
T1 sequence (looked up): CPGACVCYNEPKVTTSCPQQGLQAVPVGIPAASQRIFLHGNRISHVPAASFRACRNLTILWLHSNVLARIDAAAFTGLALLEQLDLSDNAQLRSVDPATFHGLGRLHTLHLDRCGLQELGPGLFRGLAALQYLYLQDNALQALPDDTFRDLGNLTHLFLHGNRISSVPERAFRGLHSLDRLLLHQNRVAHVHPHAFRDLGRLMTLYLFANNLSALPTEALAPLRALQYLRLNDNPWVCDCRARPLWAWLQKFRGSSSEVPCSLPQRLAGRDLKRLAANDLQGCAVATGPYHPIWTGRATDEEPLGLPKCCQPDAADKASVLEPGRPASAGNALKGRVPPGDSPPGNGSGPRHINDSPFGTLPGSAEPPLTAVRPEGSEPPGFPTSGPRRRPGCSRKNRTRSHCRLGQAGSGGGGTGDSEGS

[1] = target: T2, Homo sapiens hypothetical protein from clone 643 (LOC57228), alternative ORF homologous to SMAG (human) (UniProt Q0VAQ4); assay: as above
T2 sequence (looked up): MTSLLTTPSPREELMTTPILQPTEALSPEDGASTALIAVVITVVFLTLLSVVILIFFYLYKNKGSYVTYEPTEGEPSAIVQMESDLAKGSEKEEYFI

B1: MAG-AP (ligand, UniProt P20916 20-516, looked up, not shown: large carriers)
chain: GHWGAWMPSSISAFEGTCVSIPCRFDFPDELRPAVVHGVWYFNSPYPKNYPPVVFKSRTQVVHESFQGRSRLLGDLGLRNCTLLLSNVSPELGGKYYFRGDLGGYNQYTFSEHSVLDIVNTPNIVVPPEVVAGTEVEVSCMVPDNCPELRPELSWLGHEGLGEPAVLGRLREDEGTWVQVSLLHFVPTREANGHRLGCQASFPNTTLQFEGYASMDVKYPPVIVEMNSSVEAIEGSHVSLLCGADSNPPPLLTWMRDGTVLREAVAESLLLELEEVTPAEDGVYACLAENAYGQDNRTVGLSVMYAPWKPTVNGTMVAVEGETVSILCSTQSNPDPILTIFKEKQILSTVIYESELQLELPAVSPEDDGEYWCVAENQYGQRATAFNLSVEFAPVLLLESHCAAARDTVQCLCVVKSNPEPSVAFELPSRNVTVNESEREFVYSERSGLVLTSILTLRGQAQAPPRVICTARNLYGAKSLELPFQGAHRLMWAKIGP
binding (Nogo Receptor (human)): binds
binding [1]: binds
